Assay results: the supplement of paper PMC8728848
This is one part of the list.

How the values were obtained:
Experiment in all cases: glycan array binding signal (z-score within array); higher = stronger binding
Settings in all cases: glycan notation: IUPAC condensed, linker removed
Gal(b1-4)Glc = target: Gal(b1-4)Glc
How it was run: (§1)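 The binding signal is a Z-score computed within each array. Data were drawn from 3228 arrays in the Consortium for Functional Glycomics database, restricted to those with a known protein sequence. Scores were averaged over arrays of the same protein sequence at different concentrations or buffers, and over linkers, and negative values can be taken as non-binding.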

Gal(b1-4)Glc6S = target: Gal(b1-4)Glc6S
How it was run: as §1

Gal(b1-4)GlcNAc = target: Gal(b1-4)GlcNAc
How it was run: as §1

[1] = target: Gal(b1-4)GlcNAc(a1-6)Gal(b1-4)GlcNAc
How it was run: as §1

Gal(b1-4)GlcNAc(b1-2)Man = target: Gal(b1-4)GlcNAc(b1-2)Man
How it was run: as §1

[2] = target: Gal(b1-4)GlcNAc(b1-2)Man(a1-3)Man(b1-4)GlcNAc(b1-4)GlcNAc
How it was run: as §1

[3] = target: Gal(b1-4)GlcNAc(b1-2)Man(a1-3)[Gal(b1-4)GlcNAc(b1-2)Man(a1-6)]Man(b1-4)GlcNAc(b1-4)GlcNAc
How it was run: as §1

[4] = target: Gal(b1-4)GlcNAc(b1-2)Man(a1-3)[Gal(b1-4)GlcNAc(b1-2)Man(a1-6)]Man(b1-4)GlcNAc(b1-4)[Fuc(a1-6)]GlcNAc
How it was run: as §1

[5] = target: Gal(b1-4)GlcNAc(b1-2)Man(a1-3)[Gal(b1-4)GlcNAc(b1-2)Man(a1-6)][Gal(b1-4)GlcNAc(b1-4)]Man(b1-4)GlcNAc(b1-4)[Fuc(a1-6)]GlcNAc
How it was run: as §1

[6] = target: Gal(b1-4)GlcNAc(b1-2)Man(a1-3)[Gal(b1-4)GlcNAc(b1-2)Man(a1-6)][GlcNAc(b1-4)]Man(b1-4)GlcNAc(b1-4)[Fuc(a1-6)]GlcNAc
How it was run: as §1

[7] = target: Gal(b1-4)GlcNAc(b1-2)Man(a1-3)[GlcNAc(b1-2)Man(a1-6)]Man(b1-4)GlcNAc(b1-4)GlcNAc
How it was run: as §1

[8] = target: Gal(b1-4)GlcNAc(b1-2)Man(a1-3)[GlcNAc(b1-4)][Gal(b1-4)GlcNAc(b1-2)Man(a1-6)]Man(b1-4)GlcNAc(b1-4)GlcNAc
How it was run: as §1

[9] = target: Gal(b1-4)GlcNAc(b1-2)Man(a1-3)[Man(a1-6)]Man(b1-4)GlcNAc(b1-4)GlcNAc
How it was run: as §1

[10] = target: Gal(b1-4)GlcNAc(b1-2)Man(a1-6)Man(b1-4)GlcNAc(b1-4)GlcNAc
How it was run: as §1

[11] = target: Gal(b1-4)GlcNAc(b1-2)Man(a1-6)[GlcNAc(b1-2)Man(a1-3)]Man(b1-4)GlcNAc(b1-4)GlcNAc
How it was run: as §1

[12] = target: Gal(b1-4)GlcNAc(b1-2)Man(a1-6)[Man(a1-3)]Man(b1-4)GlcNAc(b1-4)GlcNAc
How it was run: as §1

[13] = target: Gal(b1-4)GlcNAc(b1-2)[Gal(b1-4)GlcNAc(b1-4)]Man(a1-3)[Gal(b1-4)GlcNAc(b1-2)Man(a1-6)]Man(b1-4)GlcNAc(b1-4)GlcNAc
How it was run: as §1

[14] = target: Gal(b1-4)GlcNAc(b1-2)[Gal(b1-4)GlcNAc(b1-4)]Man(a1-3)[Gal(b1-4)GlcNAc(b1-2)[Gal(b1-4)GlcNAc(b1-6)]Man(a1-6)]Man(b1-4)GlcNAc(b1-4)GlcNAc
How it was run: as §1

[15] = target: Gal(b1-4)GlcNAc(b1-2)[Gal(b1-4)GlcNAc(b1-4)]Man(a1-3)[GlcNAc(b1-4)][Gal(b1-4)GlcNAc(b1-2)Man(a1-6)]Man(b1-4)GlcNAc(b1-4)GlcNAc
How it was run: as §1

[16] = target: Gal(b1-4)GlcNAc(b1-2)[Gal(b1-4)GlcNAc(b1-4)]Man(a1-3)[GlcNAc(b1-4)][Gal(b1-4)GlcNAc(b1-2)[Gal(b1-4)GlcNAc(b1-6)]Man(a1-6)]Man(b1-4)GlcNAc(b1-4)GlcNAc
How it was run: as §1

[17] = target: Gal(b1-4)GlcNAc(b1-2)[Gal(b1-4)GlcNAc(b1-6)]Man(a1-6)[Gal(b1-4)GlcNAc(b1-2)Man(a1-3)]Man(b1-4)GlcNAc(b1-4)GlcNAc
How it was run: as §1

[18] = target: Gal(b1-4)GlcNAc(b1-2)[Gal(b1-4)GlcNAc(b1-6)]Man(a1-6)[Gal(b1-4)GlcNAc(b1-2)Man(a1-3)]Man(b1-4)GlcNAc(b1-4)[Fuc(a1-6)]GlcNAc
How it was run: as §1

[19] = target: Gal(b1-4)GlcNAc(b1-2)[Gal(b1-4)GlcNAc(b1-6)]Man(a1-6)[GlcNAc(b1-4)][Gal(b1-4)GlcNAc(b1-2)Man(a1-3)]Man(b1-4)GlcNAc(b1-4)GlcNAc
How it was run: as §1

[20] = target: Gal(b1-4)GlcNAc(b1-2)[Gal(b1-4)GlcNAc(b1-6)]Man(a1-6)[GlcNAc(b1-4)][Gal(b1-4)GlcNAc(b1-2)[Gal(b1-4)GlcNAc(b1-4)]Man(a1-3)]Man(b1-4)GlcNAc(b1-4)[Fuc(a1-6)]GlcNAc
How it was run: as §1

[21] = target: Gal(b1-4)GlcNAc(b1-3)Gal(b1-3)GalNAc
How it was run: as §1

[22] = target: Gal(b1-4)GlcNAc(b1-3)Gal(b1-3)GlcNAc
How it was run: as §1

[23] = target: Gal(b1-4)GlcNAc(b1-3)Gal(b1-4)Glc
How it was run: as §1

[24] = target: Gal(b1-4)GlcNAc(b1-3)Gal(b1-4)GlcNAc
How it was run: as §1

[25] = target: Gal(b1-4)GlcNAc(b1-3)Gal(b1-4)GlcNAc(b1-2)Man(a1-3)[Gal(b1-4)GlcNAc(b1-3)Gal(b1-4)GlcNAc(b1-2)Man(a1-6)]Man(b1-4)GlcNAc(b1-4)GlcNAc
How it was run: as §1

[26] = target: Gal(b1-4)GlcNAc(b1-3)Gal(b1-4)GlcNAc(b1-2)Man(a1-3)[Gal(b1-4)GlcNAc(b1-3)Gal(b1-4)GlcNAc(b1-2)Man(a1-6)]Man(b1-4)GlcNAc(b1-4)[Fuc(a1-6)]GlcNAc
How it was run: as §1

[27] = target: Gal(b1-4)GlcNAc(b1-3)Gal(b1-4)GlcNAc(b1-2)[Gal(b1-4)GlcNAc(b1-3)Gal(b1-4)GlcNAc(b1-6)]Man(a1-6)[Gal(b1-4)GlcNAc(b1-3)Gal(b1-4)GlcNAc(b1-2)Man(a1-3)]Man(b1-4)GlcNAc(b1-4)GlcNAc
How it was run: as §1

[28] = target: Gal(b1-4)GlcNAc(b1-3)Gal(b1-4)GlcNAc(b1-2)[Gal(b1-4)GlcNAc(b1-3)Gal(b1-4)GlcNAc(b1-6)]Man(a1-6)[Gal(b1-4)GlcNAc(b1-3)Gal(b1-4)GlcNAc(b1-2)Man(a1-3)]Man(b1-4)GlcNAc(b1-4)[Fuc(a1-6)]GlcNAc
How it was run: as §1

[29] = target: Gal(b1-4)GlcNAc(b1-3)Gal(b1-4)GlcNAc(b1-3)Gal(b1-4)GlcNAc
How it was run: as §1

[30] = target: Gal(b1-4)GlcNAc(b1-3)Gal(b1-4)GlcNAc(b1-3)Gal(b1-4)GlcNAc(b1-2)Man(a1-3)[Gal(b1-4)GlcNAc(b1-3)Gal(b1-4)GlcNAc(b1-3)Gal(b1-4)GlcNAc(b1-2)Man(a1-6)]Man(b1-4)GlcNAc(b1-4)GlcNAc
How it was run: as §1

[31] = target: Gal(b1-4)GlcNAc(b1-3)Gal(b1-4)GlcNAc(b1-3)Gal(b1-4)GlcNAc(b1-2)Man(a1-3)[Gal(b1-4)GlcNAc(b1-3)Gal(b1-4)GlcNAc(b1-3)Gal(b1-4)GlcNAc(b1-2)Man(a1-6)]Man(b1-4)GlcNAc(b1-4)[Fuc(a1-6)]GlcNAc
How it was run: as §1

[32] = target: Gal(b1-4)GlcNAc(b1-3)Gal(b1-4)GlcNAc(b1-3)Gal(b1-4)GlcNAc(b1-2)[Gal(b1-4)GlcNAc(b1-3)Gal(b1-4)GlcNAc(b1-3)Gal(b1-4)GlcNAc(b1-6)]Man(a1-6)[Gal(b1-4)GlcNAc(b1-3)Gal(b1-4)GlcNAc(b1-3)Gal(b1-4)GlcNAc(b1-2)Man(a1-3)]Man(b1-4)GlcNAc(b1-4)[Fuc(a1-6)]GlcNAc
How it was run: as §1

[33] = target: Gal(b1-4)GlcNAc(b1-3)Gal(b1-4)GlcNAc(b1-3)Gal(b1-4)GlcNAc(b1-3)Gal(b1-4)GlcNAc(b1-2)Man(a1-3)[Gal(b1-4)GlcNAc(b1-3)Gal(b1-4)GlcNAc(b1-3)Gal(b1-4)GlcNAc(b1-3)Gal(b1-4)GlcNAc(b1-2)Man(a1-6)]Man(b1-4)GlcNAc(b1-4)GlcNAc
How it was run: as §1

B1: LF82 (Escherichia coli) (protein)
chain: ADWGPCRTASGDPFIFVTSFTKNIQNPTDNVTGQTYPDFYQWALGDKYSGVCECPSPNPTEARPTLYKTESTLAAGHNSTYFKITNNLEVSTRVYIANVGNVQVPFINKSNSQPGRECDQPTFGWTTGSKGQLSLYIAKPFVGEQNIPQTIIVSVFGTKKENVYSSVPISQVLLSGKVTVTQGCELAAGTSLDIDFGEYQAHDFKGRTGQPPQNVQKIQKELTFNCTNISDGVHIYLSLEGTPNAAYPSAISLGNADVGAVIEDGKGNILKPNDSNSLLEMNPGSLYEYVKRKVTTTITAYPVSTTGKLPAAGDYSGVATMHVELDGGGGGGGGGGATTDLGAKGTLKFSLKISQGHHHHHH
- glycan array binding signal (z-score) (Gal(b1-4)Glc): -0.412
- glycan array binding signal (z-score) (Gal(b1-4)Glc6S): -0.462
- glycan array binding signal (z-score) (Gal(b1-4)GlcNAc): -0.74
- glycan array binding signal (z-score) [1]: -0.371
- glycan array binding signal (z-score) (Gal(b1-4)GlcNAc(b1-2)Man): -0.374
- glycan array binding signal (z-score) [2]: -1.06
- glycan array binding signal (z-score) [3]: -0.367
- glycan array binding signal (z-score) [4]: 0.612
- glycan array binding signal (z-score) [5]: -0.286
- glycan array binding signal (z-score) [6]: 1.05
- glycan array binding signal (z-score) [7]: -0.816
- glycan array binding signal (z-score) [8]: -0.745
- glycan array binding signal (z-score) [9]: 0.542
- glycan array binding signal (z-score) [10]: 4.95
- glycan array binding signal (z-score) [11]: -0.836
- glycan array binding signal (z-score) [12]: -1.08
- glycan array binding signal (z-score) [13]: 0.149
- glycan array binding signal (z-score) [14]: -1.18
- glycan array binding signal (z-score) [15]: -0.9
- glycan array binding signal (z-score) [16]: -0.489
- glycan array binding signal (z-score) [17]: -0.357
- glycan array binding signal (z-score) [18]: 0.999
- glycan array binding signal (z-score) [19]: -0.286
- glycan array binding signal (z-score) [20]: -0.501
- glycan array binding signal (z-score) [21]: -0.873
- glycan array binding signal (z-score) [22]: -0.236
- glycan array binding signal (z-score) [23]: -0.376
- glycan array binding signal (z-score) [24]: -1.12
- glycan array binding signal (z-score) [25]: 0.758
- glycan array binding signal (z-score) [26]: 1.5
- glycan array binding signal (z-score) [27]: -0.833
- glycan array binding signal (z-score) [28]: 2.68
- glycan array binding signal (z-score) [29]: 1.74
- glycan array binding signal (z-score) [30]: 2.16
- glycan array binding signal (z-score) [31]: 0.043
- glycan array binding signal (z-score) [32]: 1.04
- glycan array binding signal (z-score) [33]: 1.07
